According to publication PMC12430012:
No constants are given. Whether binding was seen depends on the method and setting. Binding seen in cells or lysates may run through a third protein. Some results given as binding are weak or reduced against the parent protein; the word gives no strength.

Protein sequences, listed by entry. Tags and fused reporters are not part of them. Lines headed by an entry give the natural chain unless they say otherwise; changes in a name come on top. Chains listed by the source or under a name are the forms on record and can include a tag or linker. Residues count along the entry.
Myc-tagged DNAJB11 T188E (Q9UBS4, form named): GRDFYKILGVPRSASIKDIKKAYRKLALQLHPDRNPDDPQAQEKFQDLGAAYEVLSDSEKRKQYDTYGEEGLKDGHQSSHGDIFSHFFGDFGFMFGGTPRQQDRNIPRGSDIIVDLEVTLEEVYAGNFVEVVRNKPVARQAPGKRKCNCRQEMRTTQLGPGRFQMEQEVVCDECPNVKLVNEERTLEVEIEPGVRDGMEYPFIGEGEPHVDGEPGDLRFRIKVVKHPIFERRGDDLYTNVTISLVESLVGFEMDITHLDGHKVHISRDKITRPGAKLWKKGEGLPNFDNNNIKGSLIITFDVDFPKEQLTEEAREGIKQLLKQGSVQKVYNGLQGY
Myc-tagged DNAJB11 T188A (Q9UBS4, form named): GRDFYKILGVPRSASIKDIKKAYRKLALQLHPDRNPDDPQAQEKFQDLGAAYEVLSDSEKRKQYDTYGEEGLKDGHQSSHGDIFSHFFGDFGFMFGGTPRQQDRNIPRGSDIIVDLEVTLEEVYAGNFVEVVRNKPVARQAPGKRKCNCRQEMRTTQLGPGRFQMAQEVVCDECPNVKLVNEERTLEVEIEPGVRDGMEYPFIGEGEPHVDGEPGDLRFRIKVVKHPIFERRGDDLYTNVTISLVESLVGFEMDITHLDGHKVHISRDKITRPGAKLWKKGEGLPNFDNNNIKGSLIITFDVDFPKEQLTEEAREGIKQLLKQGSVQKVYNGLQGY
UniProt P11021, residues 19-654: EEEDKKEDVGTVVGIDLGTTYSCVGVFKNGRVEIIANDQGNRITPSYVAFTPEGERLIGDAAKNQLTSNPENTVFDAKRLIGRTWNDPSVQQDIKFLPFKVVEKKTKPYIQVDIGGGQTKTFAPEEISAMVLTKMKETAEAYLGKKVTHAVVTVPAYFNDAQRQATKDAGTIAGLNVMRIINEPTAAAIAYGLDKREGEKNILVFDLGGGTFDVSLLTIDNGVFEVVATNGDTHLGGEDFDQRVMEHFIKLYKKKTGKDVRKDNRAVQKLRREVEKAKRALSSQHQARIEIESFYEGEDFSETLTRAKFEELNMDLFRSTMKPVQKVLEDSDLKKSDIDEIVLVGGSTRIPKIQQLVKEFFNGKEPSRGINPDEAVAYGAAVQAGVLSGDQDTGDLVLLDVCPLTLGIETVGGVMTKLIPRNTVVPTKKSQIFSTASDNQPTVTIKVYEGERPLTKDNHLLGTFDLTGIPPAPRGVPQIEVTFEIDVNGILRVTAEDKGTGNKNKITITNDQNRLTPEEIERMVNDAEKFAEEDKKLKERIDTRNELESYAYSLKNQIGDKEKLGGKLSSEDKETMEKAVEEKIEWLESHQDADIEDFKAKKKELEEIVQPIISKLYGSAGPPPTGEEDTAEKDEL
UniProt P11142: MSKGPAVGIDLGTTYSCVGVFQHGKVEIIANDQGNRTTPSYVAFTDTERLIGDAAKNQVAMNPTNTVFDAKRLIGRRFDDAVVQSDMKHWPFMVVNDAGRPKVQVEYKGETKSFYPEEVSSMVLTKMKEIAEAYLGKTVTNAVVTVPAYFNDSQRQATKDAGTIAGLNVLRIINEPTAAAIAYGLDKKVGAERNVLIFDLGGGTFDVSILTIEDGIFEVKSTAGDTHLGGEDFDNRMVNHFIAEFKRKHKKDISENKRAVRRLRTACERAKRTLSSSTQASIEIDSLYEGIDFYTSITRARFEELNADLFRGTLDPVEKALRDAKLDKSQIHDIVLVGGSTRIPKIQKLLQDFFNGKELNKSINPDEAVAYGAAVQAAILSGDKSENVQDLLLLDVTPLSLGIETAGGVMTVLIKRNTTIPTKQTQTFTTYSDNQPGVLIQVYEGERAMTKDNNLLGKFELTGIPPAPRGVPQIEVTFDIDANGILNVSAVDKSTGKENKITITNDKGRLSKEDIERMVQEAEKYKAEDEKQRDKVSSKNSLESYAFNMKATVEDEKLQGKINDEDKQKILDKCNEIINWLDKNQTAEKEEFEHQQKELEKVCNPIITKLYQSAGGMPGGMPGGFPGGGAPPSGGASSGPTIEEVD

Key:
[1] = target: Myc-tagged DNAJB11 T188E (human) (UniProt Q9UBS4); experiment: co-IP; SH-SY5Y cells expressing Myc-DNAJB11 (WT or mutants), etoposide 48 h; IP with anti-Myc, blots anti-BIP and anti-HSPA8
[2] = target: Myc-tagged DNAJB11 T188A (human) (UniProt Q9UBS4); experiment: as above

binding [1]	binding [2]	Substance
binds	binds	BIP (from UniProt P11021 19-654)
no binding	no binding	HSPA8 (from UniProt P11142 1-646)
